The record followed here is publication PMC9534319.

Chains of the proteins cited; added tags and fusions are not shown. Lines headed by an entry give the natural chain unless they say otherwise; changes in a name come on top.
UniProt P02452: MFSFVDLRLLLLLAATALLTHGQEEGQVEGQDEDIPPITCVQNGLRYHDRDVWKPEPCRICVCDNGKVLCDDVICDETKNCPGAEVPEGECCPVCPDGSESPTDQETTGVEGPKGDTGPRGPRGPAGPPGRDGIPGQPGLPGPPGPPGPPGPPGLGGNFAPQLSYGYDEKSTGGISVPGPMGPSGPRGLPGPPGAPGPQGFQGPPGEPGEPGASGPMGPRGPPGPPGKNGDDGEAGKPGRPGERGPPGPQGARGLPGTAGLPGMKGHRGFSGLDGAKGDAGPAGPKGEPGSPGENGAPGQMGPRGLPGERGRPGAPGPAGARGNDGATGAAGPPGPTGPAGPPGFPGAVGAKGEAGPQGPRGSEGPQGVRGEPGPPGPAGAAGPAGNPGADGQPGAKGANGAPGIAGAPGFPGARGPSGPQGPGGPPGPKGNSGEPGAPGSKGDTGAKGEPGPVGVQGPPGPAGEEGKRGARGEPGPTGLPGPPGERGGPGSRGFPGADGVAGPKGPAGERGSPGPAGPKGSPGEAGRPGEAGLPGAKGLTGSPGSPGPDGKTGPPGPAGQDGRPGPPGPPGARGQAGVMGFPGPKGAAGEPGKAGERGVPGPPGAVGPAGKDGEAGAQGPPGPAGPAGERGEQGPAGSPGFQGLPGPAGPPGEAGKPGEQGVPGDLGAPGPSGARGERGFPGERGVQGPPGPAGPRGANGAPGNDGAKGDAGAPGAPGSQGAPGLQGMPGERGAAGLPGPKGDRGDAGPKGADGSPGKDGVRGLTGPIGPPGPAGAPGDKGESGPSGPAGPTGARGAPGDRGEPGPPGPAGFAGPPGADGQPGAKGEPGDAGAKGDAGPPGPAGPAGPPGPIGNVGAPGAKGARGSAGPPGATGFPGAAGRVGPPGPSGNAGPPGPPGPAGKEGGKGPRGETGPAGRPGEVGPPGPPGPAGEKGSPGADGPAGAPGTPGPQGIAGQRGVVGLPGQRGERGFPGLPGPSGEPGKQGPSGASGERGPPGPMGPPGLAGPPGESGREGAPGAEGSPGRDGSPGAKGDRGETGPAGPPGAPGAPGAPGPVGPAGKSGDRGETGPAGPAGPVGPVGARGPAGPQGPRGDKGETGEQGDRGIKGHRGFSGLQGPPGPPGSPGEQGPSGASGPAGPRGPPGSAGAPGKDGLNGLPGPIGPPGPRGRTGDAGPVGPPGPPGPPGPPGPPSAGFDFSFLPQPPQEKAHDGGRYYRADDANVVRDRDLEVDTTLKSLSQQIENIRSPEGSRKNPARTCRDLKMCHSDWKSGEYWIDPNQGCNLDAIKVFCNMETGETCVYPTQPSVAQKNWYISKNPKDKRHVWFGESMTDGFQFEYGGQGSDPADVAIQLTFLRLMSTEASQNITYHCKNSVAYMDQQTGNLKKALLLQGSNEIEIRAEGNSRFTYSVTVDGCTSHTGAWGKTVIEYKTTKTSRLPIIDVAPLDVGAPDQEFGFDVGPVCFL

These are yes or no findings as the source states them, for the method shown. Some entries that bind do so weakly or less than the wild type.

The target in this test is Collagen I (UniProt P02452). The test is described as follows: ELISA; competition ELISA: Collagen I coated on 96-well plate at 1 μg/ml; LAIR1-hFc (2 μg/ml) pre-incubated with h219, h94 or hIgG (5 μg/ml), added after blocking with 5% non-fat milk; detected with HRP conjugated goat anti-human IgG Fc; both purified.

B1: LAIR1-hFc (Fc fusion, UniProt Q6GTX8 22-165)
chain: QEEDLPRPSISAEPGTVIPLGSHVTFVCRGPVGVQTFRLERDSRSTYNDTEDVSQASPSESEARFRIDSVREGNAGLYRCIYYKPPKWSEQSDYLELLVKESSGGPDSPDTEPGSSAGPTQRPSDNSHNEHAPASQGLKAEHLY
As for B1, the binding result is “binds”.
